According to paper PMC7738489, “Use of cyclic peptides to induce crystallization: case study with prolyl hydroxylase domain 2” (Scientific Reports, 2020):
No constants are given. Whether binding was seen depends on the method and setting.

The chains behind the UniProt entries cited, without tags or fusion partners. Residues count along the entry.
UniProt Q9GZT9, residues 181-407: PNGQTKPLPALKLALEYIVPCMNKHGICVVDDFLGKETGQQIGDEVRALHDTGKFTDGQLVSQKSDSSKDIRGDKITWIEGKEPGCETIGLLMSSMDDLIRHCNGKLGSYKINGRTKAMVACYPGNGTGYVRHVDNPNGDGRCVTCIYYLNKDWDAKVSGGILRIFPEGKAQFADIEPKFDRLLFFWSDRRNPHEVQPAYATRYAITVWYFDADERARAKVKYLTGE

Biological target: PHD2_(181-407) (catalytic domain construct of human hypoxia-inducible factor prolyl hydroxylase 2) (human) (UniProt Q9GZT9)
Experiment: SEC-MALS; cPHD2 with and without 3C; both purified

binding: no binding
Substance: PHD2_(181-407) (catalytic domain construct of human hypoxia-inducible factor prolyl hydroxylase 2) (from UniProt Q9GZT9 181-407) (domain or fragment)
